From article PMC9018856
These are yes or no findings as the source states them, for the method shown. In cells and extracts the contact can be indirect. Some entries that bind do so weakly or less than the wild type.

Chains of the proteins cited; added tags and fusions are not shown.
UniProt Q9UHP3: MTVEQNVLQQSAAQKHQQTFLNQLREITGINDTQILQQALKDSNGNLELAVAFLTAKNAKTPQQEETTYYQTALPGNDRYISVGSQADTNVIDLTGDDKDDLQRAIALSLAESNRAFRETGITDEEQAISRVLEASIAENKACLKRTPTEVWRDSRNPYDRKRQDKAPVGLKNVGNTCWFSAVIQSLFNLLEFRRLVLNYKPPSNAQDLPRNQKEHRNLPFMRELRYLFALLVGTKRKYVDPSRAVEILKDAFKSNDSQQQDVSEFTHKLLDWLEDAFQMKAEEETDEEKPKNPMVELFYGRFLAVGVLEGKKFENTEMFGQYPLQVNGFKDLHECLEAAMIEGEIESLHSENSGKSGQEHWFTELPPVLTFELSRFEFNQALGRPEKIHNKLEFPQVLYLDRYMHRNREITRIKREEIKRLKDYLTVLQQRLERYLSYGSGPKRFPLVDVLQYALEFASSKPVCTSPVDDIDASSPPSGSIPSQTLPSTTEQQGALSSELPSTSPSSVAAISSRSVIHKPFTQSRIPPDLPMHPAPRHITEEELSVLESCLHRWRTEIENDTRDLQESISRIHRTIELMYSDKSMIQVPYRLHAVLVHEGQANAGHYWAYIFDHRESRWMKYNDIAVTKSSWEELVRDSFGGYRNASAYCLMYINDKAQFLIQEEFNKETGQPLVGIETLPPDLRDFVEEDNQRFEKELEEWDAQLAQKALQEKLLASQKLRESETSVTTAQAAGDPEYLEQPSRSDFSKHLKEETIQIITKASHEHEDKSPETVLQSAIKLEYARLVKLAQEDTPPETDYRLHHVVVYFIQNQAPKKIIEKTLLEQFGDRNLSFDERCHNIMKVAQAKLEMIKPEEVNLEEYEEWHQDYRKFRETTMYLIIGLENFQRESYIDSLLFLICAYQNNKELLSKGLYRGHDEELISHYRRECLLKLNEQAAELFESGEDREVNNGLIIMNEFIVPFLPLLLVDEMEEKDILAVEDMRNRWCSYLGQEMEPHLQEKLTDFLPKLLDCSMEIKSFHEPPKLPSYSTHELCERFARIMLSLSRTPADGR
UniProt Q16665: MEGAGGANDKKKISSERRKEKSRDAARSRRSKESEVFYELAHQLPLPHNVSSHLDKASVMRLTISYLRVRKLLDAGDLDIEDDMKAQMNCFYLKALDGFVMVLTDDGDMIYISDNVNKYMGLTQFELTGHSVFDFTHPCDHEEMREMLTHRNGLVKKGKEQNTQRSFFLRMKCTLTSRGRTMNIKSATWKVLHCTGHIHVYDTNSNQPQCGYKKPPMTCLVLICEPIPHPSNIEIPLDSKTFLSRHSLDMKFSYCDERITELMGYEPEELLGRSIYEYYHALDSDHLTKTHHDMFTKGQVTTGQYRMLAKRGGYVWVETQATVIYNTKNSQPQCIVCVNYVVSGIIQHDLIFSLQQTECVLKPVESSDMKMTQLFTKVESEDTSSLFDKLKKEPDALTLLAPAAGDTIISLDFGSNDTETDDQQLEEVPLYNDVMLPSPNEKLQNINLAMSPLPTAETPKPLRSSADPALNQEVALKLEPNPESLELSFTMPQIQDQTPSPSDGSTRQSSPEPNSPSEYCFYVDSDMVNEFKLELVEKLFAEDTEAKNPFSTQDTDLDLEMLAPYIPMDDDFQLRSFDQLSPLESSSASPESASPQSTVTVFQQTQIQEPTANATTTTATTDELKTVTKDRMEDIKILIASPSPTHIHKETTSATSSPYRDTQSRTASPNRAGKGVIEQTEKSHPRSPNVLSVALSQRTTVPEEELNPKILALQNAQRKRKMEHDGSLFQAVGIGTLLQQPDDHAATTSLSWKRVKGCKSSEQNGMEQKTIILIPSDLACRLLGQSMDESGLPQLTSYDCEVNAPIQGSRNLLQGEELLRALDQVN

Columns and labels:
[1] = molecular target: ectopically expressed USP25 (human) (UniProt Q9UHP3); assay: co-IP; ectopically expressed HIF-1α and USP25 in HEK293T cells; normoxic and hypoxia-mimetic conditions (200 µM CoCl2 for 24 h); Cell Lysis Buffer (Cell Signaling), 1 mg/mL lysate, overnight at 4 °C; washes in 50 mM Tris pH 7.5, 150 mM NaCl, 1 mM EDTA, 1% Triton X-100, 5% glycerol
[2] = molecular target: endogenous USP25 (human (endogenous in HEK293T)) (UniProt Q9UHP3); assay: co-IP; endogenous proteins in HEK293T cells; lysate incubated overnight at 4 °C with 4 µg USP25 antibody (Abcam, ab187156) or rabbit IgG control, then sheep-anti-rabbit magnetic beads; immunoblot

| binding [1] | binding [2] | Substance |
| --- | --- | --- |
| binds | – | ectopically expressed HIF-1α (from UniProt Q16665 1-826) |
| – | binds | endogenous HIF-1α (from UniProt Q16665 1-826) |
